Assay results published in PubChem BioAssay AID1347075 (National Center for Advancing Translational Sciences (NCATS), 2019).
The whole screen tested about 400,000 compounds, of which about 5,500 (1.4%) were called active. This list was built around the results that the source calls inconclusive (neither active nor inactive); the mix of calls is not that of the screen. Calls come from the whole dose curve; as a rule, active = well fitted cell-killing curve with a large enough effect; inconclusive = small, poorly fitted or top-dose-only effect, or effect the other way; inactive = flat fitted curve, though single readings scatter. Potencies beside an inconclusive call are fits to weak or partial responses and may not hold up.
% is set by controls: 0 for no effect and ±100 for the full control effect; potency is the fitted concentration of half-maximal effect.

Test: qHTS assay for MDR1-selective chemotherapeutics: Primary screen using the parental adenocarcinoma cell KB-3-1; note: nearly all actives have a fitted effect of over 60% in size
Settings: KB-3-1 viability, CellTiter-Glo ATP luminescence, 72 h; activity change, negative = cytotoxic: at 46.1 µM (top of the series)
Outline: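 72 h, 37 °C compound treatment of KB-3-1 parental cells; CellTiter-Glo added, 10 min, luminescence read. Data corrected against DMSO-only plates and normalized before curve fitting.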
In the case of COCc1c(C(=O)N2CCN(Cc3ccc(C#N)cc3)CC2)oc2ccccc12, the Potency was inconclusive: 20.6 µM [cytotoxic, single point]. With CCc1ccccc1-n1c(C)nc2cc(C(=O)NCCc3ccc(Cl)cc3)ccc21 the “activity change, negative = cytotoxic” value was inactive: 0.777%. For Cc1ccc(NS(=O)(=O)c2ccc(Cl)c(C(=O)Nc3ccccc3-c3nc4ccccc4[nH]3)c2)cc1C, the Potency was inconclusive: 5.8 µM [cytotoxic, full curve, poor fit]. In the case of CC(=O)c1ccc(N2CCN(S(=O)(=O)c3cc(-c4cc(C)no4)ccc3C(C)C)CC2)cc1, the Potency was inconclusive: 29.1 µM [cytotoxic, single point]. In the case of Cc1noc(C)c1COc1ccccc1C(=O)N1CCN(S(=O)(=O)c2ccccc2F)CC1, the “activity change, negative = cytotoxic” value was inactive: 1.16%. With O=C(Nc1ccccc1NC(=O)c1ccccc1F)c1ccccc1F the “activity change, negative = cytotoxic” value was inactive: -4.27%. For Cc1cc(C(=O)NCCCN2CCN(c3cc(Cl)ccc3C)CC2)n(-c2ccccc2)n1, the Potency was inconclusive: 29.1 µM [cytotoxic, single point]. For Cc1ccc(-n2ncc(C(=O)NCCN3CCCC3)c2C2CCN(C(=O)OC(C)(C)C)CC2)cc1C, the “activity change, negative = cytotoxic” value was inactive: -13.1%. With Cc1[nH]c2ccccc2c1C(=O)COC(=O)c1ccc2c(=O)n3c(nc2c1)CCC3 the Potency was inconclusive: 3.66 µM [rising, partial curve, poor fit]. For COC(=O)C(C)NS(=O)(=O)c1ccc(NC(C)=O)cc1 (centres undefined), the Potency was inconclusive: 5.17 µM [rising, full curve, poor fit]. In the case of COc1ccc(/C=C/C(=O)Nc2cccnc2Cl)cc1, the activity change, negative = cytotoxic was inconclusive: -31.5% [cytotoxic]. With CN(CC(=O)NCc1ccco1)C(=O)C1CC(=O)N(c2ccc3c(c2)OCCO3)C1 (centres undefined) the “activity change, negative = cytotoxic” value was inactive: -14.7%. For COc1cccc(CNC(=O)c2ccc(S(=O)(=O)N3CCCCC3)cc2)c1, the “activity change, negative = cytotoxic” value was inactive: -8.45%. In the case of COCCCNC(=O)CCc1c(C)nc2nc(-c3cc(OC)cc(OC)c3)nn2c1C, the “activity change, negative = cytotoxic” value was inactive: 9.1%. For CCn1cc(C(=O)O)c(=O)c2cc(F)c(N/N=C/c3ccccc3)cc21, the Potency was inconclusive: 29.1 µM [cytotoxic, single point]. With CCOC(=O)Cc1csc(NC(NC(=O)OCC)(C(=O)OCC)C(F)(F)F)n1 (centres undefined) the “activity change, negative = cytotoxic” value was inactive: 6.34%. For NC(=O)N/N=C/c1cn(CC(=O)Nc2ccc(F)cc2)c2ccccc12, the Potency was inconclusive: 29.1 µM [rising, single point]. With Cc1occc1C(=O)N/N=C/C(Br)=C/c1ccccc1 the activity change, negative = cytotoxic was inconclusive: -18.3%. For Cc1ccc([C@H]2C[C@@H](n3cc(-c4ccc(F)cc4)nn3)[C@H](O)CN2C(=O)C2CCCCC2)cc1, the Potency was inconclusive: 18.4 µM [cytotoxic, single point]. With Cc1nc2sc3c(c2c(=O)n1NC(=O)CCBr)CCCC3 the Potency was inconclusive: 18.4 µM [cytotoxic, partial curve, poor fit]. With C/C(=N\Nc1ccc(S(=O)(=O)N2CCCCC2)cn1)c1cccc(Br)c1 the Potency was inconclusive: 29.1 µM [cytotoxic, single point]. In the case of COc1ccc(Nc2c3ccccc3nc3ccccc23)cc1, the Potency was active: 6.51 µM. For CCOC(=O)c1cccc(NC(=O)/C=C/c2ccc3c(c2)OCO3)c1, the Potency was active: 10.3 µM. In the case of N#C/C(=N/Nc1ccc(OC(F)(F)F)cc1)C(N)=S, the Potency was inconclusive: 29.1 µM [cytotoxic, single point]. In the case of COc1ccc(C)cc1NC(=O)CCC(=O)Nc1ccc2nc(N3CCN(C)CC3)cc(C)c2c1, the Potency was inconclusive: 2.31 µM [rising, full curve, poor fit]. In the case of Cn1nc(C(=O)Nc2nc(-c3ccc(F)cc3)cs2)ccc1=O, the “activity change, negative = cytotoxic” value was inactive: -25.2%. With CCCc1ncc(C(O)c2ccccc2OC)n1C (centres undefined) the activity change, negative = cytotoxic was inconclusive: 1.96%. For CC1(C(=O)NCCc2ccccc2)Cc2c(-c3ccccc3)ccnc2O1 (centres undefined), the Potency was inconclusive: 20.6 µM [cytotoxic, single point]. With CS(=O)(=O)Nc1cccc(C2=NN(C(=O)c3ccco3)C(c3ccco3)C2)c1 (centres undefined) the Potency was inconclusive: 25.9 µM [cytotoxic, single point]. For O=C1C2CCCN2C(=O)N1CCCCN1CCN(c2cccc(Cl)c2)CC1 (centres undefined), the “activity change, negative = cytotoxic” value was inactive: -38.2%. With Oc1[nH]c2ccccc2c1N=NC(=S)N1CCOCC1 the Potency was inconclusive: 4.61 µM [cytotoxic, full curve]. For CN(C(=O)COC(=O)c1ccc2c(c1)OCCO2)C1CCCCC1, the “activity change, negative = cytotoxic” value was inactive: 7.53%. In the case of CS(=O)(=O)c1ccc(C(=O)OCC(=O)Nc2cccnc2Cl)cc1[N+](=O)[O-], the Potency was inconclusive: 25.9 µM [cytotoxic, single point]. For c1ccc(Nc2ccnc(Nc3ccccc3)n2)cc1, the Potency was inconclusive: 20.6 µM [cytotoxic, single point]. In the case of C=CCn1c(C)cc(-c2csc(NC)n2)c1C, the Potency was inconclusive: 29.1 µM [cytotoxic, single point]. With CCOC(=O)N1CCN(C(=O)CNC(=O)c2nn(-c3ccc(OC)c(OC)c3)c(=O)c3ccccc23)CC1 the Potency was inconclusive: 10.3 µM [rising, partial curve, poor fit]. For COc1ccc(C(NC(=O)c2cc(OC)ccc2OC)c2ccccc2)cc1 (centres undefined), the Potency was inconclusive: 29.1 µM [cytotoxic, single point]. For Cc1ccc(OCCNC(=O)c2cccc(Oc3ccc(C(F)(F)F)cc3[N+](=O)[O-])c2)cc1, the Potency was inconclusive: 29.1 µM [cytotoxic, single point]. With COc1ccccc1C(C)NCC(=O)NC(=O)NCc1ccco1 (centres undefined) the “activity change, negative = cytotoxic” value was inactive: 17.9%. With CCCCCC(=O)N1C[C@H](O)[C@@H](n2cc(-c3ccc(F)cc3)nn2)C[C@@H]1c1ccc(C)cc1 the Potency was inconclusive: 23.1 µM [cytotoxic, single point]. For CC(C)CN1CCN=C1Nc1ccccc1, the Potency was inconclusive: 18.4 µM [rising, single point]. For CCCCN(CC(O)COc1cccc(C)c1)CC(O)COc1cccc(C)c1 (centres undefined), the Potency was inconclusive: 18.4 µM [cytotoxic, single point]. For Cc1cc(C(=O)N2CCN(c3cccc(C)c3C)CC2)c2c(C)nn(-c3ccccc3)c2n1, the Potency was inconclusive: 29.1 µM [cytotoxic, single point]. In the case of Cc1ccc(NCC(=O)Nc2cccc(S(=O)(=O)N(C)C)c2)cc1S(=O)(=O)N1CCCCCC1, the Potency was inconclusive: 32.6 µM [cytotoxic, single point]. For COC(=O)c1cccc(S(=O)(=O)N2CCC(c3nc4ccccc4o3)CC2)c1, the “activity change, negative = cytotoxic” value was inactive: -2.07%. In the case of Cc1c(NC(=O)C(C)OC(=O)C23CC4CC(CC(Br)(C4)C2)C3)c(=O)n(-c2ccccc2)n1C (centres undefined), the Potency was inconclusive: 20.6 µM [cytotoxic, single point]. In the case of Nc1nc(Nc2ccc(Cl)cc2)nc(NCCO)c1[N+](=O)[O-], the Potency was inconclusive: 20.6 µM [rising, single point]. In the case of CCSc1cc(C2C(C#N)=C(N)OC(C)=C2C(=O)OC)c(C)o1 (centres undefined), the “activity change, negative = cytotoxic” value was inactive: 3.96%. In the case of N=c1oc2cc(O)ccc2cc1C(=O)Nc1ccc(F)cc1, the Potency was inconclusive: 23.1 µM [cytotoxic, single point]. For Cc1nc(NS(=O)(=O)c2cccs2)c2c3c(sc2n1)CCC3, the Potency was inconclusive: 32.6 µM [rising, partial curve, poor fit]. In the case of CN(CC(=O)Nc1cccc(F)c1)C(=O)CN1C(=O)C2CC=CCC2C1=O (centres undefined), the “activity change, negative = cytotoxic” value was inactive: -2.95%. In the case of CCOC(=O)Cc1csc(NC(=O)CC(C)(C)C)n1, the Potency was inconclusive: 29.1 µM [cytotoxic, partial curve, poor fit]. With CC(C)(C)n1ncc2c(=O)n(CC(=O)NCc3ccc(F)cc3)cnc21 the Potency was active: 9.2 µM. With O=C(C[C@H]1C[C@H](C(=O)N2CCOCC2)[C@@]2(CCC3CCCC3)c3[nH]c4cc(-c5ccco5)ccc4c3CCN2C1=O)NCC12CC3CC(CC(C3)C1)C2 the Potency was inconclusive: 23.1 µM [cytotoxic, single point]. With O=c1[nH]c2cc3c(cc2cc1CN(Cc1nnnn1C1CCCC1)C1CCCC1)OCCO3 the Potency was active: 23.1 µM. In the case of C[n+]1c2n(c3ccccc31)N=C(c1cc(C(C)(C)C)c(O)c(C(C)(C)C)c1)CS2, the Potency was active: 4.11 µM. With CC(=O)n1nc(-c2ccc(Cl)cc2)nc1NCc1ccco1 the Potency was inconclusive: 20.6 µM [cytotoxic, single point]. For CCCC(=O)Nc1nc(C)c(-c2csc(Nc3ccccc3OC)n2)s1, the “activity change, negative = cytotoxic” value was inactive: 3.2%. In the case of COC(=O)c1cc(=O)c2c(ccc3oc(=O)ccc32)[nH]1, the “activity change, negative = cytotoxic” value was inactive: 3.24%. For Cc1ccc(C)c(NC(=S)NNC(=O)c2csc(C)c2)c1, the Potency was inconclusive: 32.6 µM [cytotoxic, single point]. With O=C1C=C(Nc2ccc(Cl)cc2)CC(c2ccco2)C1 (centres undefined) the Potency was inconclusive: 23.1 µM [cytotoxic, single point]. For COC(=O)C1=C(C)N(c2ccc(Cl)c(Cl)c2)C(=O)C1, the Potency was inconclusive: 23.1 µM [cytotoxic, partial curve, poor fit]. In the case of COc1ccc(N2CCN(CCCNC(=O)c3cc(Nc4ccc(OC)cc4OC)nc4ccccc34)CC2)cc1, the “activity change, negative = cytotoxic” value was inactive: -28.7%. With c1ccc(C2=NNC(=NC3CC3)SC2)cc1 the Potency was inconclusive: 20.6 µM [cytotoxic, single point]. With O=[N+]([O-])c1cccnc1N1CCC(c2cc(-c3ccc(Cl)cc3)n[nH]2)CC1 the activity change, negative = cytotoxic was inconclusive: -29.4%. For Cn1c(=O)c2c(nc(NCCNC(=O)c3ccco3)n2Cc2ccc(Cl)cc2Cl)n(C)c1=O, the “activity change, negative = cytotoxic” value was inactive: 0.668%. In the case of COc1ccc2[nH]c3c(C)c4ccncc4c(C)c3c2c1, the Potency was active: 18.4 µM. With Cn1c(=O)oc2cc(S(=O)(=O)N3CCCC(C(=O)NC4CCCc5ccccc54)C3)ccc21 (centres undefined) the Potency was active: 5.8 µM. In the case of S=c1[nH]nc(COc2ccccc2)n1C1CCCCC1, the Potency was inconclusive: 6.51 µM [rising, partial curve, poor fit].
